The values below come from paper PMC9115922.

Amino acid sequences for entries named in this document (tags omitted). A change or cut given only in a name is not applied to a line headed by its entry. Chains listed by the source or under a name are the forms on record and can include a tag or linker.
UniProt Q15078: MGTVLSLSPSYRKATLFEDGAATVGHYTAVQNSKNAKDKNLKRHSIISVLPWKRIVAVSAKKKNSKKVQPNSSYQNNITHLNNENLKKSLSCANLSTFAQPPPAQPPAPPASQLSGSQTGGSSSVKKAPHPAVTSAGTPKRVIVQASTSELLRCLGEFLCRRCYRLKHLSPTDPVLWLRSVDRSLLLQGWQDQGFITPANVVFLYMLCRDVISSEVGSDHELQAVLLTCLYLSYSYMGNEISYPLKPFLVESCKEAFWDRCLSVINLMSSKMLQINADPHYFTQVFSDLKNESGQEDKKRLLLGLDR
UniProt Q9UQF2: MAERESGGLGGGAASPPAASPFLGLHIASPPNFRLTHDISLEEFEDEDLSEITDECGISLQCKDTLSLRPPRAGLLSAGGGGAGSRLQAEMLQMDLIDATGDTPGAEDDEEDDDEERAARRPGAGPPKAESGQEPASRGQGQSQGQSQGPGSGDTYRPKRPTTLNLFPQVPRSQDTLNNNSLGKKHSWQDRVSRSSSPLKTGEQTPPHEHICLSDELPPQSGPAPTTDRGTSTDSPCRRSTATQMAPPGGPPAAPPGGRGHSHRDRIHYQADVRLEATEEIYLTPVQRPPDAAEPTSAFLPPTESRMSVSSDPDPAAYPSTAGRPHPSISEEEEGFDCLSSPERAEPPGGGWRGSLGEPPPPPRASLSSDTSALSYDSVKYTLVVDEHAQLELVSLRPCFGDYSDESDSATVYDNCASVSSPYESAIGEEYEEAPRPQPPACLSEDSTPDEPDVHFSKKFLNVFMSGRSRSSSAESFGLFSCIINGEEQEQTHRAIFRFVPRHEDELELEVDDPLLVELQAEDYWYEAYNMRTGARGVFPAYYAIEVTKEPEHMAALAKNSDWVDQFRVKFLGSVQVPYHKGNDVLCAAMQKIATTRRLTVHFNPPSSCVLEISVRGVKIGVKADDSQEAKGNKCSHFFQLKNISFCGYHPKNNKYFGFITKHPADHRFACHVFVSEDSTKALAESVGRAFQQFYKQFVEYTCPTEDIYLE
UniProt Q8C863: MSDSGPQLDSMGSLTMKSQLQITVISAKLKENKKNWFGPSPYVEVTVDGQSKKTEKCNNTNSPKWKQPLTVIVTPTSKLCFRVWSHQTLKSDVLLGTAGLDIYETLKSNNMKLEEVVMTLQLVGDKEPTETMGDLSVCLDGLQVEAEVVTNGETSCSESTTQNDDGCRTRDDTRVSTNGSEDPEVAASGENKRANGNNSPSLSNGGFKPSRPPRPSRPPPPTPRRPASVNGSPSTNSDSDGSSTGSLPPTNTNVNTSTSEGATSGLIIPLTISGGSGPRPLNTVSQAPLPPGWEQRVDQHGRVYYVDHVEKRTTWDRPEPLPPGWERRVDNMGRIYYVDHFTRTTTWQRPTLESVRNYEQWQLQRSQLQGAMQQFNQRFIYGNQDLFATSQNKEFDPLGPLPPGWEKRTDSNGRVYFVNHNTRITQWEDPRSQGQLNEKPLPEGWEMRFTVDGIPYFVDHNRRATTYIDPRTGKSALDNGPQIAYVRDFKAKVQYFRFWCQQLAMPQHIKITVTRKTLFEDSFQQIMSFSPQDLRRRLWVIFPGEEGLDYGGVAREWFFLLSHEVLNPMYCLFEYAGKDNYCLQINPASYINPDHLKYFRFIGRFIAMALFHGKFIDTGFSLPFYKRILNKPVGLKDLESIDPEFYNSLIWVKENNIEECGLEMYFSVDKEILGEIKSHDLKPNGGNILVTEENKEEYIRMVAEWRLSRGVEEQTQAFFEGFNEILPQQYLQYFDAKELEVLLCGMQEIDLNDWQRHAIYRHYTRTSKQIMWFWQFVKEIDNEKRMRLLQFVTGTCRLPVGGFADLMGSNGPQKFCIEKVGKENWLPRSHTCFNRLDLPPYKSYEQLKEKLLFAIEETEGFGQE
UniProt P61809: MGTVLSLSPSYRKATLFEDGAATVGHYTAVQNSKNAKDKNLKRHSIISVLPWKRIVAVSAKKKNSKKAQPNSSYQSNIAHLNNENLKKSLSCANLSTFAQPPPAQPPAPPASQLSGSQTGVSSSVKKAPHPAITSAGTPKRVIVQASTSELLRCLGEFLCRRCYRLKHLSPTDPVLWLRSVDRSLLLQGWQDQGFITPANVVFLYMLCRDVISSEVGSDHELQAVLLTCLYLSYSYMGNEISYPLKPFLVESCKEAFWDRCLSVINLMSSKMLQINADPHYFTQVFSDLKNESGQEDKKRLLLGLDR
Recombinant Human ITCH/AIP4 isoform 2 protein (Q96J02-2, form named): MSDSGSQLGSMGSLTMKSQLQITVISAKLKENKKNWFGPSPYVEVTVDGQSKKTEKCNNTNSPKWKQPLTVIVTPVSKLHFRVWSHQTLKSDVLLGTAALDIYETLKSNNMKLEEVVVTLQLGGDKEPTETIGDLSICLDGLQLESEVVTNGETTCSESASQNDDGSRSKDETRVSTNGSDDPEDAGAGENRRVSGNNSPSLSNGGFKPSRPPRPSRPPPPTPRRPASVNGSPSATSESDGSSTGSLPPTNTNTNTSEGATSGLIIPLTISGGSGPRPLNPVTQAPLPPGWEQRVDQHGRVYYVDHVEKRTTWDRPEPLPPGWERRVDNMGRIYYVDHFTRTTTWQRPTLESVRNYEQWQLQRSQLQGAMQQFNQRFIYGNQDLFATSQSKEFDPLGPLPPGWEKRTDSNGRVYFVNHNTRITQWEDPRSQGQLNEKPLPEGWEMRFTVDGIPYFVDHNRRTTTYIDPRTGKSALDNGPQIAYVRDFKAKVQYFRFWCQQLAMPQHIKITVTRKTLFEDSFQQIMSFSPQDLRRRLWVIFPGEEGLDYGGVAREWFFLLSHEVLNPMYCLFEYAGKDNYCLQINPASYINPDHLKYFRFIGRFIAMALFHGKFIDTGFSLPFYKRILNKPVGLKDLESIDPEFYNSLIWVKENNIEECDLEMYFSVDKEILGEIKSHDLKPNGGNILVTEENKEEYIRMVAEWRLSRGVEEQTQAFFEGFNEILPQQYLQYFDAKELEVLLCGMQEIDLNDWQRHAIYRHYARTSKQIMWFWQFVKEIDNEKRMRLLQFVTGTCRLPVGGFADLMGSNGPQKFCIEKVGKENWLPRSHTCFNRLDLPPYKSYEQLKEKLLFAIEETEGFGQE

No constants are given. Whether binding was seen depends on the method and setting. For part of these data: In cells and extracts the contact can be indirect. Some results given as binding are weak or reduced against the parent protein; the word gives no strength.

For one assay, the target named is GST fused-p35 (UniProt Q15078). Kind of assay: pull-down; GST or GST-p35 incubated with 1 μg Itch or/and 1 μg His-JIP1 at 4 °C for 2 h; retrieved with GSH beads; blot with Itch and JIP1 antibody; both purified.
The target of assay [1] is GST fused with JIP1 (c-Jun N-terminal kinase (JNK)-interacting protein 1) (human) (UniProt Q9UQF2). The experiment in a line: pull-down; 1 μg GST or GST-JIP1 incubated with 2 μg His-p35 at 4 °C for 2 h; retrieved with GSH-Sepharose; western blot with anti-p35; both purified. Background: Immunoblotting shows a protein as a band on a membrane.
For assay [2], the target named is T1, JIP1, endogenous mouse (mouse (endogenous in embryonic brain and cortical neurons)) (UniProt Q9WVI9).
T1 sequence: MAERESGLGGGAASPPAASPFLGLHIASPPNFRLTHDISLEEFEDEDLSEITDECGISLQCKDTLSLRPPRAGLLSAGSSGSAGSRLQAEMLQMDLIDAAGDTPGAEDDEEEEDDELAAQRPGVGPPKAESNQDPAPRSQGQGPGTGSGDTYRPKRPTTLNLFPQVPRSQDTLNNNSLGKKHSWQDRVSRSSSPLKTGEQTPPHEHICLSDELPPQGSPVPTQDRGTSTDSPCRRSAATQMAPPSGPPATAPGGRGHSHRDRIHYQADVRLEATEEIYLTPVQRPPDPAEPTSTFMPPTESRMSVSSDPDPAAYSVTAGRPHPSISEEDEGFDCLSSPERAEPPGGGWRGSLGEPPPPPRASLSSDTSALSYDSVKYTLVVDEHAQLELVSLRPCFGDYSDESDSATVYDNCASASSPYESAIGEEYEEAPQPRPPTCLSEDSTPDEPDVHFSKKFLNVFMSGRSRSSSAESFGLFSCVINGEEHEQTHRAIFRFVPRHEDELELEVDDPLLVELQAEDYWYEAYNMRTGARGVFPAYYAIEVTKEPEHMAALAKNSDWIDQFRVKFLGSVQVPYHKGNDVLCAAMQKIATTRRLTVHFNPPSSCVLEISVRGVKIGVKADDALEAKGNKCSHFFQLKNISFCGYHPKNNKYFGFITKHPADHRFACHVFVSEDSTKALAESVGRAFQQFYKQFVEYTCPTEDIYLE
Kind of assay: co-IP; 500 μg mouse brain lysate (E15-16); IP with 1 μg JIP1 antibody or IgG control; blot with anti-p35.

Assay [3] addresses Itch, endogenous mouse (mouse (endogenous in embryonic cortex)) (UniProt Q8C863). Kind of assay: co-IP; CD-1 embryonic cortex lysate (E15.5-16.5); IP with Itch antibody; blot with JIP1 antibody.
Assay [4] has as its target p35, endogenous mouse (mouse (endogenous in embryonic brain and cortical neurons)) (UniProt P61809). Kind of assay: co-IP; lysates of cultured cortical neurons of p35 or JIP1 WT and KO mice; IP with anti-p35 or control IgG; blot with anti-JIP1.

Consider His-JIP1 (from UniProt Q9UQF2 1-711), for which, in the assay with GST fused-p35, the binding result is “binds”.

In the case of “His-tagged p35 (from UniProt Q15078 1-307)”, the binding entry in assay [1] is “binds”. Take “Recombinant Human ITCH/AIP4 isoform 2 protein (from UniProt Q96J02-2 1-862) (enzyme)”: in the assay with GST fused-p35, the binding result is reported as “binds”. As for “p35, endogenous mouse (from UniProt P61809 1-307)”, the binding result in assay [2] was “binds”.

B1: JIP1, endogenous mouse (protein, UniProt Q9WVI9 1-707)
chain: MAERESGLGGGAASPPAASPFLGLHIASPPNFRLTHDISLEEFEDEDLSEITDECGISLQCKDTLSLRPPRAGLLSAGSSGSAGSRLQAEMLQMDLIDAAGDTPGAEDDEEEEDDELAAQRPGVGPPKAESNQDPAPRSQGQGPGTGSGDTYRPKRPTTLNLFPQVPRSQDTLNNNSLGKKHSWQDRVSRSSSPLKTGEQTPPHEHICLSDELPPQGSPVPTQDRGTSTDSPCRRSAATQMAPPSGPPATAPGGRGHSHRDRIHYQADVRLEATEEIYLTPVQRPPDPAEPTSTFMPPTESRMSVSSDPDPAAYSVTAGRPHPSISEEDEGFDCLSSPERAEPPGGGWRGSLGEPPPPPRASLSSDTSALSYDSVKYTLVVDEHAQLELVSLRPCFGDYSDESDSATVYDNCASASSPYESAIGEEYEEAPQPRPPTCLSEDSTPDEPDVHFSKKFLNVFMSGRSRSSSAESFGLFSCVINGEEHEQTHRAIFRFVPRHEDELELEVDDPLLVELQAEDYWYEAYNMRTGARGVFPAYYAIEVTKEPEHMAALAKNSDWIDQFRVKFLGSVQVPYHKGNDVLCAAMQKIATTRRLTVHFNPPSSCVLEISVRGVKIGVKADDALEAKGNKCSHFFQLKNISFCGYHPKNNKYFGFITKHPADHRFACHVFVSEDSTKALAESVGRAFQQFYKQFVEYTCPTEDIYLE
For B1, the binding result in assay [3] and in assay [4] was “binds” in each case.
